Assays:
[1] = OTFT performance, top gate bottom contact (TGBC) devices, spin-coated semiconductor; details: spin-coating (<40° C.), Ag contacts
Experimental: Device Fabrication Procedure (Top Gate Bottom Contact (TGBC)): For TGBC devices, PolyEthyleneNaphthalate (PEN) substrates (2″×2″) were planarized with UV-curable polymeric films (ActivInk D1400, Polyera Corp., Skokie, Ill.). A silver layer of 30 nm was then deposited by thermal evaporation. Source and drain contacts were patterned using photolithography process and silver was etched by a mixture of acids and water. The semiconductor was spun from a hydrocarbon solution (15 mg-mL) at 2000 rpm. The semiconductor film thickness depends on the solubility of the semiconductor. […] These films were then baked on a hot plate at 110° C. for 10 min to remove residual solvent. The amorphous fluoropolymer CYTOP (CTL-809M, Asahi Glass Corporation) was spun as the top-gate dielectric at 5000 rpm to a thickness of about 450 nm, and baked on a hot plate at about 110° C. for 10 minutes. The device structure was completed by the evaporation of an aligned Ag top-gate stripe.
(§1) The TFT performance of 2,9-1MP-DNTT were compared vis-a-vis to that of C8-DNTT (synthesized according to the procedure reported in Org. Lett. 2011, 13, 3430) in several device architectures.
(§2) All devices were characterized in a Signatone Probe Station using a Keithley 4200 Semiconductor Characterization System to obtain transfer and output characteristics. Device parameters were extracted from the transfer characteristics according to standard transistor equations.

[2] = OTFT performance, bottom gate top contact (BGTC) devices, semiconductor by physical vapor deposition; details: PVD, Au contacts
Description: Device Fabrication Procedure (Bottom Gate Top Contact (BGTC)): BGTC TFTs were fabricated using compounds of the present teachings as the semiconductor layer. N-doped silicon wafers (100) with 3000 Å thermally grown silicon dioxide layer (Addison Inc. were used as device substrates. Prior to deposition of the semiconductor, the Si/SiO2 surfaces were modified through a special octadecyltrichlorosilane (OTS) treatment process. Thin films of semiconductors approximately 40-120 nm in thickness were prepared through physical vapor deposition (PVD), with the deposition rate of 0.1-0.5 Å/s and the substrate temperature of 30-120° C. The TFTs were completed by vapor deposition of 300 Å gold source/drain electrodes onto the semiconductor layer through a stencil mask to define the transistor channel. The channel lengths and widths are about 50-200 μm and about 500-2000 μm, respectively. The silicon dioxide layer served as the gate insulator. The gate electrode was accessed through an ohmic contact to the doped silicon.
as §1, §2

[3] = OTFT performance, bottom gate bottom contact (BGBC) devices, spin-coated semiconductor; details: spin-coating (<40° C.), channel length 10 μm, Ag contacts
Description: Device Fabrication Procedure (Bottom Gate Bottom Contact (BGBC)): For BGBC devices, a Cr/Au gate stripe was evaporated on clean PEN substrates. Subsequently, UV-curable polymeric films (ActivInk D1450, Polyera Corp., Skokie, Ill.) were spun (thickness ˜500 nm) and cured to form the bottom-gate dielectric. A silver layer of 30 nm was then deposited by thermal evaporation. Source and drain contacts were patterned using photolithography process and silver was etched by a mixture of acids and water. Thin films of the semiconductor were prepared according to the same protocols as for the TGBC devices.
as §1, §2

CCCC(C)c1ccc2cc3c(cc2c1)sc1c2cc4ccc(C(C)CCC)cc4cc2sc31 (stereo not drawn) [2,9-1MB-DNTT, 2,9-Bis(1-methylbutyl)dinaphtho [2,3-b:2′,3′-f]thieno[3,2-b]thiophene]
average hole mobility μmean ([1]; channel length 10 μm): 1.80 cm^2/V · s | on/off ratio ION/IOFF ([1]; channel length 10 μm): 1 × 10^7 | threshold voltage VT ([1]; channel length 10 μm): +4 V

CCCCC(C)c1ccc2cc3c(cc2c1)sc1c2cc4ccc(C(C)CCCC)cc4cc2sc31 (stereo not drawn) [2,9-1MP-DNTT, 2,9-Bis(1-methylpentyl)dinaphtho[2,3-b:2′,3′-f]thieno[3,2-b]thiophene]
average hole mobility μmean ([2]; channel length 50-200 μm): 1-3 cm^2/V · s | on/off ratio ION/IOFF ([2]; channel length 50-200 μm): ~10^6 | threshold voltage VT ([2]; channel length 50-200 μm): ~−0 V | average hole mobility μmean ([1]; channel length 3 μm): 0.35 cm^2/V · s | on/off ratio ION/IOFF ([1]; channel length 3 μm): 2 × 10^7 | threshold voltage VT ([1]; channel length 3 μm): +6 V | average hole mobility μmean ([1]; channel length 5 μm): 0.56 cm^2/V · s | on/off ratio ION/IOFF ([1]; channel length 5 μm): 1 × 10^7 | threshold voltage VT ([1]; channel length 5 μm): +5 V | average hole mobility μmean ([1]; channel length 10 μm): 1.01 cm^2/V · s | on/off ratio ION/IOFF ([1]; channel length 10 μm): 2 × 10^6 | threshold voltage VT ([1]; channel length 10 μm): +2 V | average hole mobility μmean ([1]; channel length 20 μm): 1.50 cm^2/V · s | on/off ratio ION/IOFF ([1]; channel length 20 μm): 8 × 10^6 | threshold voltage VT ([1]; channel length 20 μm): 0 V | average hole mobility μmean [3]: 0.70 cm^2/V · s | on/off ratio ION/IOFF [3]: 7 × 10^6 | threshold voltage VT [3]: 0 V

CCCCC(C)c1ccc2cc3c(cc2c1)sc1c2cc4ccccc4cc2sc31 (stereo not drawn) [Compound 2-1MP-DNTT, 2-(1-methylpentyl)dinaphtho[2,3-b:2′,3′-f]thieno[3,2-b]thiophene]
average hole mobility μmean ([2]; channel length 100 μm): 2.3 cm^2/V · s | on/off ratio ION/IOFF ([2]; channel length 100 μm): ~10^6 | threshold voltage VT ([2]; channel length 100 μm): ~−60 V

CCCCC(C)c1ccc2cc3c(cc2c1)sc1c2ccccc2sc31 (stereo not drawn) [Compound 2-1MP-NTTB, 2-(1-methylpentyl)naphtho[2,3-b]benzo[1,2-f]thieno[3,2-b]thiophene]
average hole mobility μmean ([2]; channel length 100 μm): 0.3 cm^2/V · s | on/off ratio ION/IOFF ([2]; channel length 100 μm): ~10^6 | threshold voltage VT ([2]; channel length 100 μm): ~−25 V | average hole mobility μmean ([1]; channel length 10 μm): 0.14 cm^2/V · s | on/off ratio ION/IOFF ([1]; channel length 10 μm): ~10^7 | threshold voltage VT ([1]; channel length 10 μm): ~−2 V | average hole mobility μmean [3]: 0.10 cm^2/V · s | on/off ratio ION/IOFF [3]: ~10^6 | threshold voltage VT [3]: ~−2 V
